The results in this text go back to the supplement of paper PMC9877034.

Where a name gives a salt, the structure may show the parent alone. In all, about 1,000 compounds were measured (“cFRET/donor change relative to DMSO, normalised to beta-lapachone positive control (supercomplex I-IV assembly)”: median about 0.18, lowest 2% from about -1 on). Some of the results follow.

In this assay the test system is C2C12 (NDUFB8-AcGFP / COX8A-DsRed-Monomer FRET reporter). The experiment in a line: cFRET/donor change relative to DMSO, normalised to beta-lapachone positive control (supercomplex I-IV assembly) (fraction of beta-lapachone effect); higher = more respiratory supercomplex assembly. To be noted: 40 µM; 24 h. How it is done: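 Cells were treated with 40 uM compound for 24 h and imaged on an IN Cell Analyzer 6000. Corrected FRET was divided by donor signal (cFRET/donor) and measured in two replicate experiments. The score is (mean cFRET/donor of compound - mean DMSO) / (mean beta-lapachone 40 uM - mean DMSO). Compounds flagged for prominent cell death, abnormal morphology or decreased cell number were excluded.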
For `S=C(S)N1CCCC1` [Ammonium pyrrolidinedithiocarbamate], the cFRET/donor change worked out at 0.614.
Compound `CN(c1ccccc1CNc1nc(Nc2ccc3c(c2)CC(=O)N3)ncc1C(F)(F)F)S(C)(=O)=O` showed a cFRET/donor change of 0.036.
Under `NS(=O)(=O)c1cc2c(cc1Cl)NC(C1CC3C=CC1C3)NS2(=O)=O` (configuration not stated) [Cyclothiazide] stands -0.0438; under `CSC(=N)NCCC[C@H](N)C(=O)O` [S-Methyl-L-thiocitrulline acetate], 0.18; under `c1ccc2c(CC3=NCCN3)cccc2c1` [Naphazoline hydrochloride], 0.488.
For the compound `CCN(CC)CC(=O)Nc1c(C)cccc1C` [Lidocaine hydrochloride], the cFRET/donor change is 0.237.
Under `O=c1n(CCCN2CCN(c3cccc(Cl)c3)CC2)nc2ccccn12` [Trazodone hydrochloride] stands 0.586.
Next, `C=C[C@H]1CN2CC[C@H]1C[C@H]2[C@H](O)c1ccnc2ccc(OC)cc12` [Quinine sulfate]: 0.41.
Under `Oc1ccc(-c2nc(-c3ccc(F)cc3)c(-c3ccncc3)[nH]2)cc1` stands -0.171; under `OC1(c2ccc(Cl)cc2)CCN(Cc2c[nH]c3ccccc23)CC1`, 0.296; under `Nc1ncnc2c1ncn2[C@@H]1O[C@H](COP(=O)(O)OP(=O)(O)OP(=O)(O)OP(=O)(O)OC[C@@H]2O[C@H](n3cnc4c(N)ncnc43)C(O)[C@@H]2O)[C@H](O)C1O` (some centres not stated) [P1,P4-Di(adenosine-5')tetraphosphate triammonium], 0.0746.
Take `Nc1cc(N2CCCCC2)nc(N)[n+]1[O-]` [Minoxidil]: the cFRET/donor change was determined as 0.185.
Under `COc1ccc2cc([C@H](C)C(=O)O)ccc2c1` [(-)-Naproxen sodium] stands -0.154.
Under `CCCN(CCC)CCc1cccc2c1CC(=O)N2` [Ropinirole hydrochloride] stands 0.0704; under `N=C(N)c1ccc(N)cc1` [4-Aminobenzamidine dihydrochloride], 0.576.
Under `Cc1[nH]c(=O)c(C#N)cc1-c1ccc2nccn2c1` [Olprinone hydrochloride] stands 0.211; under `NC(=O)c1cnccn1` [Pyrazinecarboxamide], 0.098; under `CCC(=O)c1ccc2c(c1)N(CCCN(C)C)c1ccccc1S2` [Propionylpromazine hydrochloride], 0.226.
Turning to `O=C(CCNNC(=O)c1ccncc1)NCc1ccccc1` [Nialamide], the cFRET/donor change was determined as 0.468.
Next, `N/C(=N\C(=O)c1nc(Cl)c(N)nc1N)NCc1ccccc1` [Benzamil hydrochloride]: 0.224; `CCCn1c(=O)c2[nH]c(C3CCCC3)nc2n(CCC)c1=O` [8-Cyclopentyl-1,3-dipropylxanthine]: -0.105; `Cc1cc2c(s1)Nc1ccccc1N=C2N1CCN(C)CC1` [Olanzapine]: 0.385.
